The results in this text go back to US20030219813A1 (Takeda / Millennium, published 2003).

Chains of the proteins cited; added tags and fusions are not shown. Residues count along the entry.
UniProt Q9NRA1, residues 23-345: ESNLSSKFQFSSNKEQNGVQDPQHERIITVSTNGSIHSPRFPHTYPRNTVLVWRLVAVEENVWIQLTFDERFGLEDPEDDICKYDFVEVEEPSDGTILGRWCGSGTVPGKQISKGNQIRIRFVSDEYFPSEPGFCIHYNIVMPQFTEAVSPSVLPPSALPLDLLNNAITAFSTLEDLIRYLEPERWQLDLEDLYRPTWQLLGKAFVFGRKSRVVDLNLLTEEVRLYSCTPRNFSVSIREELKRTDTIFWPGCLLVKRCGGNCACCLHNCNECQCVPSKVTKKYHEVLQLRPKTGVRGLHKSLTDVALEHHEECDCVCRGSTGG

Assay [1] has as its target SCUBE1.Myc (human SCUBE1 tagged with Myc at the C-terminus, endogenous signal peptide) (human) (UniProt Q8IWY4). The assay can be described thus: co-immunoprecipitation, anti-Myc IP, anti-Flag M2 blot (FIG. 8b).
For assay [2] the target is unchanged. The assay can be described thus: co-immunoprecipitation of detergent lysates, anti-Myc IP, anti-Flag M2 blot (FIG. 8b).
Assay [3] shares this target. The assay can be described thus: co-immunoprecipitation from co-transfected cells (FIG. 8a).
The target is the same in assay [4]. The assay can be described thus: co-immunoprecipitation and western blot from co-transfected 293T cells (FIG. 8a). Background: Immunoblotting shows a protein as a band on a membrane.
Assay [5] addresses PDGF-C (platelet-derived growth factor C) (UniProt Q9NRA1). The assay can be described thus: co-transfection in HEK-293 cells, analysis of cell lysates with antibodies.

No constants are given. Whether binding was seen depends on the method and setting. For some of these results: Binding seen in cells or lysates may run through a third protein. Some entries that bind do so weakly or less than the wild type.

For the molecule “Flag.SCUBE1-D1 (Flag-tagged deletion construct 1 of human SCUBE1, amino acids 26-789 of SEQ ID NO:2, CUB domain deleted) (from UniProt Q8IWY4 26-789)”, the binding entry in assay [1] and in assay [2] was “binds” each time.

Regarding “Flag.SCUBE1-FL (Flag-tagged full-length human SCUBE1) (from UniProt Q8IWY4 23-988)”, the binding result in assay [3], in assay [1], in assay [2] and in assay [4] was “binds” throughout.

B1: human SCUBE1 (SEQ ID NO:2) (other)
chain: AGGSGLPGSVDVDECSEGTDDCHIDAICQNAPKSYKCLCKPGYKGEGKQCGDIDECENDYYNGGCVHECINIPGNYRCTCFDGFMLAHDGHNCLDVDECQDNNGGCQQICVNAMGSYECQCHSGFFLSDNQHTCIHRSNEGMNCMNKDHGCAHICRETPKGGVACDCRPGFDLAQNQKDCTLTCNYGNGGCQHSCEDTDTGPTCGCHQKYAPHSDGRTCIETCAVNNGGCDRTCKDTATGVRCSCPVGFTLQPDGKTCKDINECLVNNGGCDHFCRNTVGSFECGCRKGYKLLTDERTCQDIDECSFERTCDHICINSPGSFQCLCHRGYILYGTTHCGDVDECSMSNGSCDQGCVNTKGSYECVCPPGRRLHWNRKDCVETGKCLSRAKTSPRAQLSCSKAGGVESCFLSCPAHTLFVPDSENSYVLSCGVPGPQGKALQKRNGTSSGLGPSCSDAPTTPIKQKARFKIRDAKCHLRPHSQARAKETARQPLLDHCHVTFVTLKCDSSKKRRRGRKSPSKEVSHITAEFEIETKMEEASDTCEADCLRKRAEQSLQAAIKTLRKSIGRQQFYVQVSGTEYEVAQRPAKALEGQGACGAGQVLQDSKCVACGPGTHFGGELGQCVPCMPGTYQDMEGQLSCTPCPSSDGLGLPGARNVSECGGQCSPGFFSADGFKPCQACPVGTYQPEPGRTGCFPCGGGLLTKHEGTTSFQDCEAKVHCSPGHHYNTTTHRCIRCPVGTYQPEFGQNHCITCPGNTSTDFDGSTNVTHCKNQHCGGELGDYTGYIESPNYPGDYPANAECVWHIAPPPKRRILIVVPEIFLPIEDECGDVLVMRKSASPTSITTYETCQTYERPIAFTSRSRKLWIQFKSNEGNSGKGFQVPYVTYDEDYQQLIEDIVRDGRLYASENHQEILKDKKLIKALFDVLAHPQNYFKYTAQESKEMFPRSFIKLLRSKVSRFLRPYK
modifications: glycosylated (N-linked, tunicamycin-sensitive)
notes: protein of 988 amino acids; also called Signal peptide-CUB-EGF-like domain-containing protein 1; recombinantly expressed SCUBE1
With B1, the binding entry in assay [5] is “binds”.
